Results deposited as PubChem BioAssay AID1508597 (Cure First, 2020).
Test: 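Genes whose silencing sensitises or protects ovarian cancer cells against rucaparib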 (primary screen). System: human ovarian carcinoma lines grown from tumours: OCI-P5x (papillary serous) and OCI-C5x (clear cell). Reagent: siRNA pool against human genes, 1.25 pmol siRNA per well. Duration: 72 h or 96 h, depending on the cell culture. Conditions: rucaparib 20 µM (about IC30) or vehicle, present until read-out. Rucaparib or vehicle: Vehicle. Cell line: OCI-C5x (clear cell). Read-out: 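ATP luminescence measured at 72 or 96 h according to the culture, then normalised and expressed as percent viability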. Scale: viability, normalised: higher = more viable cells remaining. Rule for the call: 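Active when normalised viability falls below 80 percent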. Meaning of the calls: active = viability under 80%; inactive = viability 80% or more.
Shown is a random part of the about 2,100 reagents, under one of the conditions tested. 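Calls flag viability under 80% in either arm, not effects specific to rucaparib; the reference for percent is not stated.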 Entries without a mark were called inactive. Reagents against one gene are numbered here. A reagent listed more than once was tested more than once; the source does not tell the runs apart. The record does not give: the 100% reference.

| Target gene | reagent no. | technical replicate | viability, normalised (%) |
| --- | --- | --- | --- |
| MAP4K1 | 1 | 1 | 70.5 (active) |
| MAP4K1 | 1 | 2 | 64.9 (active) |
| MAP4K1 | 1 | 3 | 49.4 (active) |
| PHF23 | 1 | 1 | 42.3 (active) |
| PHF23 | 1 | 2 | 41.8 (active) |
| PHF23 | 1 | 3 | 41.7 (active) |
| SDC4 | 1 | 1 | 52.2 (active) |
| SDC4 | 1 | 2 | 53.3 (active) |
| SDC4 | 1 | 3 | 56.5 (active) |
| DMAP1 | 1 | 1 | 45.4 (active) |
| DMAP1 | 1 | 2 | 54.6 (active) |
| DMAP1 | 1 | 3 | 33.6 (active) |
| ING3 | 1 | 1 | 38.7 (active) |
| ING3 | 1 | 2 | 62.1 (active) |
| ING3 | 1 | 3 | 68.4 (active) |
| F3 | 1 | 1 | 47.2 (active) |
| F3 | 1 | 2 | 48 (active) |
| F3 | 1 | 3 | 55.2 (active) |
| NBL1 | 1 | 1 | 53.7 (active) |
| NBL1 | 1 | 2 | 71 (active) |
| NBL1 | 1 | 3 | 51.8 (active) |
| EDF1 | 1 | 1 | 41.2 (active) |
| EDF1 | 1 | 2 | 55.6 (active) |
| EDF1 | 1 | 3 | 12.3 (active) |
| OXSR1 | 1 | 1 | 75.6 (active) |
| OXSR1 | 1 | 2 | 67.7 (active) |
| OXSR1 | 1 | 3 | 50.2 (active) |
| PCDHB3 | 1 | 1 | 38.9 (active) |
| PCDHB3 | 1 | 2 | 35.4 (active) |
| PCDHB3 | 1 | 3 | 41.4 (active) |
| CXXC1 | 1 | 1 | 63.8 (active) |
| CXXC1 | 1 | 1 | 17.4 (active) |
| CXXC1 | 1 | 2 | 48.8 (active) |
| CXXC1 | 1 | 2 | 25.4 (active) |
| CXXC1 | 1 | 3 | 55.9 (active) |
| CXXC1 | 1 | 3 | 32.3 (active) |
| IFNAR2 | 1 | 1 | 67.4 (active) |
| IFNAR2 | 1 | 2 | 64.2 (active) |
| IFNAR2 | 1 | 3 | 79.8 (active) |
| H1-9P | 1 | 1 | 45.4 (active) |
| H1-9P | 1 | 2 | 51.5 (active) |
| H1-9P | 1 | 3 | 40.8 (active) |
| MTRF1L | 1 | 1 | 53.8 (active) |
| MTRF1L | 1 | 2 | 68.6 (active) |
| MTRF1L | 1 | 3 | 71.7 (active) |
| CDK12 | 1 | 1 | 55.9 (active) |
| CDK12 | 1 | 1 | 54.7 (active) |
| CDK12 | 1 | 2 | 50.1 (active) |
| CDK12 | 1 | 2 | 45.9 (active) |
| CDK12 | 1 | 3 | 46.6 (active) |
| CDK12 | 1 | 3 | 40.6 (active) |
| CDK12 | 2 | 1 | 56.9 (active) |
| CDK12 | 2 | 2 | 75.7 (active) |
| CDK12 | 2 | 3 | 51.1 (active) |
| PKLR | 1 | 1 | 79.9 (active) |
| PKLR | 1 | 2 | 70.6 (active) |
| PKLR | 1 | 3 | 59.5 (active) |
| PSMC2 | 1 | 1 | 33.7 (active) |
| PSMC2 | 1 | 2 | 29.1 (active) |
| PSMC2 | 1 | 3 | 24.7 (active) |
| SCYL2 | 1 | 1 | 60.3 (active) |
| SCYL2 | 1 | 2 | 55 (active) |
| SCYL2 | 1 | 3 | 45.9 (active) |
| DLG2 | 1 | 1 | 64.2 (active) |
| DLG2 | 1 | 2 | 65.2 (active) |
| DLG2 | 1 | 3 | 66.4 (active) |
| PRKAA2 | 1 | 1 | 52.8 (active) |
| PRKAA2 | 1 | 2 | 91 |
| PRKAA2 | 1 | 3 | 45.8 (active) |
| PDE9A | 1 | 1 | 53.1 (active) |
| PDE9A | 1 | 2 | 66.6 (active) |
| PDE9A | 1 | 3 | 48.5 (active) |
| TAF7 | 1 | 1 | 65.3 (active) |
| TAF7 | 1 | 2 | 49.5 (active) |
| TAF7 | 1 | 3 | 43.3 (active) |

8 entries from above, ordered by “viability, normalised (%)”, ascending.
| Target gene | reagent no. | technical replicate | viability, normalised (%) |
| --- | --- | --- | --- |
| CXXC1 | 1 | 1 | 17.4 (active) |
| CXXC1 | 1 | 2 | 25.4 (active) |
| CXXC1 | 1 | 3 | 32.3 (active) |
| PCDHB3 | 1 | 2 | 35.4 (active) |
| PCDHB3 | 1 | 3 | 41.4 (active) |
| CXXC1 | 1 | 2 | 48.8 (active) |
| CXXC1 | 1 | 3 | 55.9 (active) |
| CXXC1 | 1 | 1 | 63.8 (active) |
